Earlier results, collected in paper PMC3933419, “Synthesis and Properties of a Selective Inhibitor of Homeodomain–Interacting Protein Kinase 2 (HIPK2)” (PLoS ONE, 2014).

System: panel of 71 protein kinases
Conditions: 1 µM concentration, ref [9]; cited from earlier work

Structure (SMILES): C[S+]([O-])c1ccc(-c2nc(-c3ccncc3)c(-c3ccc(F)cc3)[nH]2)cc1 (stereo not shown) [SB203580]
- average inhibition of the whole panel: 17.7%
